Here are results for 1 substance from paper PMC8351696.

Protein sequences, listed by entry. Tags and fused reporters are not part of them.
UniProt P35226: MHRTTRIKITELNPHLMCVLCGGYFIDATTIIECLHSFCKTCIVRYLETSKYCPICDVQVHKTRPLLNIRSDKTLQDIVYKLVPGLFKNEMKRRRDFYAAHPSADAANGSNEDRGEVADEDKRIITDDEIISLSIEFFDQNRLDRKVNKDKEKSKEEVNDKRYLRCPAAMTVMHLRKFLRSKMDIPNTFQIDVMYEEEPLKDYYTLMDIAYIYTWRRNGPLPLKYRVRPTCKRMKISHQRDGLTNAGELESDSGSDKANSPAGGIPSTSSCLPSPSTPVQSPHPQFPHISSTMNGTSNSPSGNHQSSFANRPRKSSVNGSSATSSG

This assay addresses B-cell specific Moloney murine leukemia virus integration region 1 (BMI1) (human (endogenous in T24)) (UniProt P35226). Put plainly: co-IP; T24 cells lysed; immunoprecipitated by anti-BMI1 and anti-p53 antibodies, immune complexes detected by anti-BMI1 and anti-p53, ECL.

These are yes or no findings as the source states them, for the method shown. Binding seen in cells or lysates may run through a third protein. Some entries that bind do so weakly or less than the wild type.

Turning to p53 (from UniProt P04637 1-393), the binding entry is reported as “binds”.
